# No constants are given. Whether binding was seen depends on the method and setting. In cells and extracts the contact can be indirect. Some results given as binding are weak or reduced against the parent protein; the word gives no strength.
# Protein sequences, listed by entry. Tags and fused reporters are not part of them.
# UniProt Q15796: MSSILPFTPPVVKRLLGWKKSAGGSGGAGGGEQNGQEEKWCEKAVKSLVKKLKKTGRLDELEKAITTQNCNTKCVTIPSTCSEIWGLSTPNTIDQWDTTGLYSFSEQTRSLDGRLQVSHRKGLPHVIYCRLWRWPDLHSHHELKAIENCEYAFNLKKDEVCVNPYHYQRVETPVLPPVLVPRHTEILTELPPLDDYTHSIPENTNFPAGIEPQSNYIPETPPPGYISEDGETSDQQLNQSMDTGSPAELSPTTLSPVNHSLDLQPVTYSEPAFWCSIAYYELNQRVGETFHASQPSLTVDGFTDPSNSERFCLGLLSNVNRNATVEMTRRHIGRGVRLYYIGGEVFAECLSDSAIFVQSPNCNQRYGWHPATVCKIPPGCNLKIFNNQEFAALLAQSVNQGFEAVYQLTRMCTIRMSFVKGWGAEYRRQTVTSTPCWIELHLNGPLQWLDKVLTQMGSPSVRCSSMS
# UniProt Q62432: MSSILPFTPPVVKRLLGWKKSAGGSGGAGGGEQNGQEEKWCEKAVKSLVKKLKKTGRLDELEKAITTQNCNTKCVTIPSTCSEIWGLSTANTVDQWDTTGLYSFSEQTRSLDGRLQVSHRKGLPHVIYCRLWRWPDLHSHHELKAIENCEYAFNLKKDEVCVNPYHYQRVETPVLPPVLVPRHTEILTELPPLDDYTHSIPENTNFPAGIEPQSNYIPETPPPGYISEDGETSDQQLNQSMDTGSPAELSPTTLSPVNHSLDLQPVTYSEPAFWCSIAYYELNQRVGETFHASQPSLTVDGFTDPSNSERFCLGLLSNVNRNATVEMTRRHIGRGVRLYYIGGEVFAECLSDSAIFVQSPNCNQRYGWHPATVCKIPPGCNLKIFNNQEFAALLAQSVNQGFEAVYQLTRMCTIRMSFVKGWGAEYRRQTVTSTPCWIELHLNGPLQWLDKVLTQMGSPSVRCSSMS
# What was measured:
# [1] = biological target: T1, SATB1 (Jurkat cells) (human (endogenous in Jurkat)) (UniProt Q01826); test: co-IP
# T1 sequence: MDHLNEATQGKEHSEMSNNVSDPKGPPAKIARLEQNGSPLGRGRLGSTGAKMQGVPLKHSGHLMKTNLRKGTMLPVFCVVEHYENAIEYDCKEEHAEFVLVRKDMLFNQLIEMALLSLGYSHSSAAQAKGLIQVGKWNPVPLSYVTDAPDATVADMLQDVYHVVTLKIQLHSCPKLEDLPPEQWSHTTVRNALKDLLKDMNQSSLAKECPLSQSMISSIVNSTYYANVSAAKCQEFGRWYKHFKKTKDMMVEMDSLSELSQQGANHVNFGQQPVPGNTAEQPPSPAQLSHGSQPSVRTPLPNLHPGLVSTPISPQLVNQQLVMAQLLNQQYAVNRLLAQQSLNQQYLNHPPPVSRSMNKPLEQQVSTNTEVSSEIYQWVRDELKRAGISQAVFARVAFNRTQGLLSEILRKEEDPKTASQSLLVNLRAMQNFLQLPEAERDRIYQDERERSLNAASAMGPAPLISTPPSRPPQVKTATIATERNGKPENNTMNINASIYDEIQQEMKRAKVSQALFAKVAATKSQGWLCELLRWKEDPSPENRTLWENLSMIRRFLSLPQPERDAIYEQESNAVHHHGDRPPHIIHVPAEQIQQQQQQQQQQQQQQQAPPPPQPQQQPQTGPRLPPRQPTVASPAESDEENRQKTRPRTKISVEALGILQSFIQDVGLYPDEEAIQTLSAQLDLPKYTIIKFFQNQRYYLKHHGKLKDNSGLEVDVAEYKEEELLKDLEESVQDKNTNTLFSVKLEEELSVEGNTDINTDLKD
# [2] = biological target: T2, SATB1 (mouse (endogenous in primary MGE cells)) (UniProt Q60611); test: proximity ligation
# T2 sequence: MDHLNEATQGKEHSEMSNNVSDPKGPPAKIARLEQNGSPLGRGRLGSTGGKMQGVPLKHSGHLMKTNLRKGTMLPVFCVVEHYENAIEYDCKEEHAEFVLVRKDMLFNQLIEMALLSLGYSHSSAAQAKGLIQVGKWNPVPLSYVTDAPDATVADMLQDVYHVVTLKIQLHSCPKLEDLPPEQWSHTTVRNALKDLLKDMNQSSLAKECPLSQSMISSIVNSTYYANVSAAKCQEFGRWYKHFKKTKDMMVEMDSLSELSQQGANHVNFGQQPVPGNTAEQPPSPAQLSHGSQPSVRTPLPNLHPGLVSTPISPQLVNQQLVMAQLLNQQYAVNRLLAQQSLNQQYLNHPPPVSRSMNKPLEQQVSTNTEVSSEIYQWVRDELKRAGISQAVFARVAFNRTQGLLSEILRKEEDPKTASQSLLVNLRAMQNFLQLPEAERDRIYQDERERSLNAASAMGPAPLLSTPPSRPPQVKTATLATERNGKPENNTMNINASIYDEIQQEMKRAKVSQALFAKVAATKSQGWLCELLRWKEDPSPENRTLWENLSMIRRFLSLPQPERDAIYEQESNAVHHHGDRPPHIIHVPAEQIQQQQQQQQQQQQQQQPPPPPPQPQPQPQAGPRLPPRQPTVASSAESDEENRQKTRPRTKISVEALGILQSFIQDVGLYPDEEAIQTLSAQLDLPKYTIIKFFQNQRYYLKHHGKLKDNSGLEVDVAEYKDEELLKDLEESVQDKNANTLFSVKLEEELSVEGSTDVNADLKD
binding [1],binding [2],Substance
binds,,Smad2 (Jurkat cells) (from UniProt Q15796 1-467)
,binds,Smad2 (from UniProt Q62432 1-467)
